In publication PMC11271488, “The AKT2/SIRT5/TFEB pathway as a potential therapeutic target in non-neovascular AMD” (Nature Communications, 2024):
No constants are given. Whether binding was seen depends on the method and setting. For some of these results: In cells and extracts the contact can be indirect. Some results given as binding are weak or reduced against the parent protein; the word gives no strength. For some of these results: Sequences can lack the tags named with a protein.

Chains of the proteins cited; added tags and fusions are not shown. Residues count along the entry.
UniProt Q9NXA8, residues 37-310: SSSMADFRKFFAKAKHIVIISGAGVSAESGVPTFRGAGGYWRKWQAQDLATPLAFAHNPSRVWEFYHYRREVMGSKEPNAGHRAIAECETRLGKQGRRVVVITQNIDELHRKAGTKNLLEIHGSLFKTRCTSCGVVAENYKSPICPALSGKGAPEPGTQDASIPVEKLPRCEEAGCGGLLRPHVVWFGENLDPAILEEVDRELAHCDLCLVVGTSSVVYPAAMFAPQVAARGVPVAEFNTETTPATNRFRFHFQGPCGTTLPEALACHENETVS

Key:
HA-SIRT5 (human) = HA-SIRT5 (human) (UniProt Q9NXA8); assay: co-IP; lysates of ARPE19 cells overexpressing SIRT5-HA and AKT2-GFP, 48 h after transfection; pulldown with anti-HA antibody (anti-IgG as control), western blot
[1] = target: Sirtuin 5 (SIRT5), on the HuProt v3.1 human proteome array (human) (UniProt Q9NXA8); assay: peptide or protein array; HuProt v3.1 human proteome array probed with recombinant AKT2 at 1 ug/mL; GenePix analysis; only interactions with a Z-score above 6 considered; both purified
EGFP-AKT2 (human) = EGFP-AKT2 (human) (UniProt P31751); assay: co-IP; called a pulldown assay; AKT2 complex with secretory autophagy proteins, with or without SIRT5 overexpression; bait, cells and beads told only in Supplementary Fig. 9 (not shown)

Question: With “EGFP-AKT2 (from UniProt P31751 1-481) (enzyme)” as the molecule, how does the binding (HA-SIRT5 (human)) read?
Answer: binds

B1: recombinant AKT2 (RAC-beta serine/threonine-protein kinase) (enzyme, human, UniProt P31751 1-481, looked up)
chain: MNEVSVIKEGWLHKRGEYIKTWRPRYFLLKSDGSFIGYKERPEAPDQTLPPLNNFSVAECQLMKTERPRPNTFVIRCLQWTTVIERTFHVDSPDEREEWMRAIQMVANSLKQRAPGEDPMDYKCGSPSDSSTTEEMEVAVSKARAKVTMNDFDYLKLLGKGTFGKVILVREKATGRYYAMKILRKEVIIAKDEVAHTVTESRVLQNTRHPFLTALKYAFQTHDRLCFVMEYANGGELFFHLSRERVFTEERARFYGAEIVSALEYLHSRDVVYRDIKLENLMLDKDGHIKITDFGLCKEGISDGATMKTFCGTPEYLAPEVLEDNDYGRAVDWWGLGVVMYEMMCGRLPFYNQDHERLFELILMEEIRFPRTLSPEAKSLLAGLLKKDPKQRLGGGPSDAKEVMEHRFFLSINWQDVVQKKLLPPFKPQVTSEVDTRYFDDEFTAQSITITPPDRYDSLGLLELDQRTHFPQFSYSASIRE
notes: AKT2, RAC-beta serine/threonine-protein kinase; recombinant protein used as the probe on the HuProt v3.1 array; source: recombinant
Question: With B1 as the molecule, how does the binding [1] read?
Answer: binds

B2: Synaptotagmin Like 1 (SYTL1), found in the AKT2 pulldown (protein, UniProt Q8IYJ3 1-562)
chain: MPQRGHPSQEGLWALPSLPMAHGPKPETEGLLDLSFLTEEEQEAIAGVLQRDARLRQLEEGRVSKLRASVADPGQLKILTGDWFQEARSQRHHNAHFGSDLVRASMRRKKSTRGDQAPGHDREAEAAVKEKEEGPEPRLTIDEAPQERLRETEGPDFPSPSVPLKASDPEEASQAQEDPGQGDQQVCAEEADPELEPASGGEQEPRPQQAQTKAASQILENGEEAPGPDPSLDRMLSSSSSVSSLNSSTLSGSQMSLSGDAEAVQVRGSVHFALHYEPGAAELRVHVIQCQGLAAARRRRSDPYVKSYLLPDKQSKRKTAVKKRNLNPVFNETLRYSVPQAELQGRVLSLSVWHRESLGRNIFLGEVEVPLDTWDWGSEPTWLPLQPRVPPSPDDLPSRGLLALSLKYVPAGSEGAGLPPSGELHFWVKEARDLLPLRAGSLDTYVQCFVLPDDSQASRQRTRVVRRSLSPVFNHTMVYDGFGPADLRQACAELSLWDHGALANRQLGGTRLSLGTGSSYGLQVPWMDSTPEEKQLWQALLEQPCEWVDGLLPLRTNLAPRT
Question: B2 was tested. Which binding (EGFP-AKT2 (human)) did it give?
Answer: binds

B3: synaptosome-associated protein 23 (SNAP23) (protein, UniProt O00161 1-211)
chain: MDNLSSEEIQQRAHQITDESLESTRRILGLAIESQDAGIKTITMLDEQKEQLNRIEEGLDQINKDMRETEKTLTELNKCCGLCVCPCNRTKNFESGKAYKTTWGDGGENSPCNVVSKQPGPVTNGQLQQPTTGAASGGYIKRITNDAREDEMEENLTQVGSILGNLKDMALNIGNEIDAQNPQIKRITDKADTNRDRIDIANARAKKLIDS
Question: How did the binding (EGFP-AKT2 (human)) turn out when B3 was run?
Answer: binds
